Paper PMC8612745

The chains behind the UniProt entries cited, without tags or fusion partners. Where a name states a change or a piece, a line headed by the entry shows the natural chain unless it says otherwise.
UniProt O15264: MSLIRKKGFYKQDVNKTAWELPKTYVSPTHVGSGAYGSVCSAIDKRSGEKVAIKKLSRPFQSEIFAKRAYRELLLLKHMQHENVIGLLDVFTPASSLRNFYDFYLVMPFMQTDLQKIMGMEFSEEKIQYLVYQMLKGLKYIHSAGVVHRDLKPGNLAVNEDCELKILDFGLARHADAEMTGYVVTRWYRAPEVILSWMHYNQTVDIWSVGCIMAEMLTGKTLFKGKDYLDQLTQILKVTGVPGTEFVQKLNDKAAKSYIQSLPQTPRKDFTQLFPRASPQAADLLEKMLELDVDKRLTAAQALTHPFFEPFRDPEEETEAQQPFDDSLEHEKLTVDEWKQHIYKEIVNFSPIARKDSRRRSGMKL

Target: FLAG-p38δ^act (constitutively active human p38δ, AAV-cTnT expressed) (human) (UniProt O15264)
Assay: co-IP; anti-FLAG immunoprecipitates (FLAG-p38γ/δ^act) from heart lysates of TnTp38γ/δ^act mice; immunoblot for GYS1 and GSK3; TnTGFP hearts as control

binding: binds
B1: glycogen synthase 1 (GYS1), cardiac, endogenous (enzyme, UniProt Q9Z1E4 1-738)
chain: MPLSRSLSVSSLPGLEDWEDEFDPENAVLFEVAWEVANKVGGIYTVLQTKAKVTGDEWGDNYYLVGPYTEQGVRTQVELLEPPTPELKRTLDSMNSKGCKVYFGRWLIEGGPLVVLLDVGASAWALERWKGELWDTCNIGVPWYDREANDAVLFGFLTTWFLGEFLAQNEEKPYVVAHFHEWLAGVGLCLCRARRLPVATIFTTHATLLGRYLCAGAVDFYNNLENFNVDKEAGERQIYHRYCMERAAAHCAHVFTTVSQITAIEAQHLLKRKPDIVTPNGLNVKKFSAMHEFQNLHAQSKARIQEFVRGHFYGHLDFNLDKTLYFFIAGRYEFSNKGADVFLEALARLNYLLRVNGSEQTVVAFFIMPARTNNFNVETLKGQAVRKQLWDTANTVKEKFGRKLYESLLVGSLPDMNKMLDKEDFTMMKRAIFATQRQSFPPVCTHNMLDDSSDPILTTIRRIGLFNSSADRVKVIFHPEFLSSTSPLLPVDYEEFVRGCHLGVFPSYYEPWGYTPAECTVMGIPSISTNLSGFGCFMEEHIADPSAYGIYILDRRFRSLDDSCSQLTSFLYSFCQQSRRQRIIQRNRTERLSDLLDWKYLGRYYMSARHMALAKAFPDHFTYEPHEVDATQGYRYPRPASVPPSPSLSRHSSPHQSEDEEEPRDGPLGEDSERYDEEEEAAKDRRNIRAPEWPRRASCSSSTGGSKRSNSVDTGPSSSLSTPTEPLSPTSSLGEERN

Results are given in words; binding and its absence hold for the method and conditions named. Binding seen in cells or lysates may run through a third protein. A result given as binding can be weak or reduced; the word gives no strength.
